Consider 2 substances from paper PMC5703852.

Chains of the proteins cited; added tags and fusions are not shown. Lines headed by an entry give the natural chain unless they say otherwise; changes in a name come on top.
UniProt A6JFZ3: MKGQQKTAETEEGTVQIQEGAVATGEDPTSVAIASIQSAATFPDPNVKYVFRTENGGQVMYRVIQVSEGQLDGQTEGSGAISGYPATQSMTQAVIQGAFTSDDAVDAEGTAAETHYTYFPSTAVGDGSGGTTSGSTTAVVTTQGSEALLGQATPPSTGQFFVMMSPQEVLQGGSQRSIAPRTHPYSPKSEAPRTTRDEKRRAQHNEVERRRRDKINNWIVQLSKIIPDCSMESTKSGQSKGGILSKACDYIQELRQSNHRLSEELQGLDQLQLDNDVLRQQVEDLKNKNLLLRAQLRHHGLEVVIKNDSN
UniProt P22415: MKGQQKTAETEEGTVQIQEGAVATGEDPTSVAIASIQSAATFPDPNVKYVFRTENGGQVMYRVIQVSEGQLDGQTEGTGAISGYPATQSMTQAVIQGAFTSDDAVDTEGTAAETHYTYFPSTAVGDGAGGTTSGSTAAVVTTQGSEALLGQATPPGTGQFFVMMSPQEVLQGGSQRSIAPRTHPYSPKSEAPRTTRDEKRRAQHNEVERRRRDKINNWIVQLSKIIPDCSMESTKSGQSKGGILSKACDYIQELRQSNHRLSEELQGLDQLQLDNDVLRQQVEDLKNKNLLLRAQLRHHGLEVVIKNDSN
UniProt P52947: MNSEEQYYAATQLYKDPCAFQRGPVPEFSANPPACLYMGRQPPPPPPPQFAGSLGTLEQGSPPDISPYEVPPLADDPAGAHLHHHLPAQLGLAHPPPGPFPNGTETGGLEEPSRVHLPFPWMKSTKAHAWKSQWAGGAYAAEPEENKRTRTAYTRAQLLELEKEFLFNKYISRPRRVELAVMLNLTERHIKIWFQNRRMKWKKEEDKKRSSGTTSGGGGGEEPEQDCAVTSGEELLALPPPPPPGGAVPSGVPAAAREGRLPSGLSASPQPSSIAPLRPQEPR
UniProt P52946: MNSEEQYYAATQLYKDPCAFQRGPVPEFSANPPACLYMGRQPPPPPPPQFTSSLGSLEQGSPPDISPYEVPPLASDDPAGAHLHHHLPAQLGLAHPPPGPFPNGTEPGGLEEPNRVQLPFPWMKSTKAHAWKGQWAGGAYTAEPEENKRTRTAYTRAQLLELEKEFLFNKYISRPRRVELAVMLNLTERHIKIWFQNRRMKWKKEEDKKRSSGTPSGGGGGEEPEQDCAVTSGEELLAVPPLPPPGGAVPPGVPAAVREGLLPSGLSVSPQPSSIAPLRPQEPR

Results are given in words; binding and its absence hold for the method and conditions named. In cells and extracts the contact can be indirect. Some entries that bind do so weakly or less than the wild type.

Assay [1] addresses upstream stimulatory factor USF1 (endogenous, INS-1 cells) (rat (endogenous in INS-1)) (UniProt A6JFZ3). The experiment in a line: co-IP; 2 mg nuclear extract of INS-1 cells (starved, then 0, 5 or 25 mM glucose for 4 h; or DMSO 24 h), pre-cleared, incubated with USF1 antibody sc-8983 for 2 h at 4 °C, protein G sepharose, washed with PBS; Western blot for PDX-1.
For assay [2] the target is unchanged. The assay is described as follows: co-IP; as a1, but INS-1 cells treated with the CK2 inhibitors 10 µM CX-4945 or 50 µM quinalizarin for 24 h before nuclear extraction.
In assay [3] the target is GST-USF1 wild-type (UniProt P22415). The assay is described as follows: pull-down; 10 µg purified GST fusion protein on GSH-sepharose in PBS-T (PBS pH 7.4, 1% Tween 20), 2 h at 4 °C with 7.5 µl in vitro translated [35S]methionine-labelled partner; SDS-PAGE, Coomassie, autoradiography; only the target purified.
Assay [4] addresses GST-USF1 T100A (UniProt P22415). Described as above.

Regarding “PDX-1 (endogenous, INS-1 cells) (from UniProt P52947 1-283)”, the binding entry in assay [1] was “binds”; in assay [2] it was “binds weakly”.
For the substance “in vitro translated PDX-1 (pRSET-PDX-1) (from UniProt P52946 1-284)”, the binding entry in assay [3] and in assay [4] was “binds” throughout.
